The data set can be described thus: peptide synthesis. The settings on record: whole synthesis.

YPWF-CONH2 gave an isolated yield of 26%. Moreover, the “final HPLC purity” value (280 nm) is reported as 97.5%.
For the substance YPFF-CONH2, the isolated yield came to 29%. For the same substance, where the note is “220 nm”, the “final HPLC purity” value is recorded as 100%.
Consider SFLLRN-CONH2, for which the isolated yield turned out to be 21%. Besides, under “220 nm”, the “final HPLC purity” value came to 100%.
SFLLR-CONH2: the isolated yield is listed as 39%. The “final HPLC purity” value (220 nm) came out at 98.41%.
